Test results reported in paper PMC4381336.
Results are given in words; binding and its absence hold for the method and conditions named. In cells and extracts the contact can be indirect. Some entries that bind do so weakly or less than the wild type.

Molecular target: T1, p120-catenin (mouse (endogenous in mILC-1)) (UniProt P30999)
T1 sequence: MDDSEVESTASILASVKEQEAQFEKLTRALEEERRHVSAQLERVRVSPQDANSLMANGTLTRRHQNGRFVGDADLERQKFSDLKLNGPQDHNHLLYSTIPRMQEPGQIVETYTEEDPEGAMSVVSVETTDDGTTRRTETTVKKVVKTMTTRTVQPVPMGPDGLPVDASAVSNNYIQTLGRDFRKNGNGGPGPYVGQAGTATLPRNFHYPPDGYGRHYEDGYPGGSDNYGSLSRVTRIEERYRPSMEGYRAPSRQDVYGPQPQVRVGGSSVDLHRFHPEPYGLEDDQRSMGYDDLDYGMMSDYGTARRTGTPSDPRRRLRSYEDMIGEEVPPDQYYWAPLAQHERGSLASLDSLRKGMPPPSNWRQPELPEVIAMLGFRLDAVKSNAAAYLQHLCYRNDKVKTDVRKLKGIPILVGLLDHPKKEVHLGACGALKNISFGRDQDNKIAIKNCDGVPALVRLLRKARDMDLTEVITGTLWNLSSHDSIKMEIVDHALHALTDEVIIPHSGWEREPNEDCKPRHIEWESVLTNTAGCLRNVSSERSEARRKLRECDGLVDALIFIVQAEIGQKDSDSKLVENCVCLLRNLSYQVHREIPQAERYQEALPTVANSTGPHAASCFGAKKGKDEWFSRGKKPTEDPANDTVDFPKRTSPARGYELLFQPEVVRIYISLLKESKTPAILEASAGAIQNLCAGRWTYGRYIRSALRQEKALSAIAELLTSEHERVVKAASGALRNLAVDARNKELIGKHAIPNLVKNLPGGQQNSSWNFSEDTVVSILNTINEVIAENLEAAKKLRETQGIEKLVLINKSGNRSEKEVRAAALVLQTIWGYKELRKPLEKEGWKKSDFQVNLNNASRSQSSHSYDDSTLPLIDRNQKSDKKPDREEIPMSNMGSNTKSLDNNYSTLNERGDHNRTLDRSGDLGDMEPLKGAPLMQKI
Test: co-IP; p120 immunoprecipitated from mILC-1 lysate with mouse anti-p120 (BD Biosciences 610134) on Protein A/G agarose beads, 2 hours; lysis buffer 20 mM Tris-HCl pH 7.5, 150 mM NaCl, 1 mM EDTA, 1 mM EGTA, 1% Triton X-100, 5% glycerol; Kaiso detected by western blot; mouse IgG as control

B1: Kaiso (protein, UniProt Q8BN78 1-671)
chain: MESRKLISATDIQYSASLLNSLNEQRGHGLFCDVTVIVEDRKFRAHRNILSASSTYFHQLFSVAGQVVELSFIRAEIFAEILNYIYSSKVVRVRADLLDELIKSGQLLGVKFIAELGVPLSQVKSISGTEQDGTAETLPSSSSDKSLDMEKSKDEAQDNGATVMPIITESFSLSAEDNEMKKIIVTDSDDDDDDDVIFCSEILPAKEDLPSNNTATQVQPNPASVAISEVTPCASNNSPPVTNITPTQLPTPVNQATLSQTQGSEELLVSSASTHLTPNIILLNQAPLTAPPSASSSLPNHMSSSVNVLVQNQQTPNSAVLTGNKAEEEEEIIDDDDDIISSSPDSAVSNTSLVPQADNSKSTTLDGSLTQKMQIPVLPQEPPSNSLKISDVITRNTNDPGLRSKHVMEGQKIITLDTATEIEGLSTGCKVYANIGEDTYDIVIPVKDDPDGGEAKLDNELPKTSGSEPPNKRMKVKHDDHYELIVDGRVYYICIVCKRSYVCLTSLRRHFNIHSWEKKYQCRYCDKVFPLAEYRTKHEIHHTGERRYQCLTCGKSFINYQFMSSHIKSVHSQDPSGDSKLYRLHPCKSLQIRQYAYLSNKSSAMPVMKDDAVGYKVDAGKEPPVGTTSTPPQNKSTFWEDIFIQQENDSIFKQNVTDGSTEFEFIIPESY
- binding: binds
